Record: PubChem BioAssay AID652243 (Drosophila RNAi Screening Center, 2013)
Purpose: 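Fly regulators of androgen-dependent reporter output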 (primary screen). Cell system: Drosophila S2R+ cells. Reagents: long dsRNA against Drosophila genes. Timing: 72 h (48 h, then 24 h hormone). Conditions: synthetic androgen R1881 at 10 nM for 24 h. Detection: 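Per-well raw luminescence of the androgen-driven firefly reporter and of the Renilla control, two replicates each, without normalisation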. Scale: firefly reporter light: higher = more light from androgen-responsive reporter; Renilla control light: higher = more constitutive control signal (cell number, transfection). Call rule: 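Across duplicate plates, a knock-down whose log firefly/Renilla ratio shifted a set fold down or up from the GFP/LacZ control mean was a hit; the downward cut appears as both 1.5 and 3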. Calls: active = hit: reporter lowered or raised; inactive = no hit.
In all, the deposit lists about 24,000 reagents; this is an unselected part of those that have a named target and a result. Over the whole deposit, 246 (1%) got an active call. 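Plates not normalised; calls are printed but the firefly/Renilla ratio behind them is not deposited; fold cut for lowering reported inconsistently.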 Raw values are not corrected between plates. The numbers tell different reagents against one gene apart. No sequences are given here. Not stated in the record: the amount of reagent.

{"target": "mahe (maheshvara)", "reagent": 1, "firefly reporter light, replicate 1": 46185, "firefly reporter light, replicate 2": 61062, "Renilla control light, replicate 1": 2.86e5, "Renilla control light, replicate 2": 3.15e5, "outcome": "inactive"}
{"target": "mahe (maheshvara)", "reagent": 2, "firefly reporter light, replicate 1": 6.77e5, "firefly reporter light, replicate 2": 6.08e5, "Renilla control light, replicate 1": 6.71e5, "Renilla control light, replicate 2": 5.99e5, "outcome": "inactive"}
{"target": "Lrp4 (LDL receptor related protein 4)", "reagent": 1, "firefly reporter light, replicate 1": 1.02e5, "firefly reporter light, replicate 2": 67070, "Renilla control light, replicate 1": 4.85e5, "Renilla control light, replicate 2": 5.23e5, "outcome": "inactive"}
{"target": "Ilp8 (Insulin-like peptide 8)", "reagent": 1, "firefly reporter light, replicate 1": 3.45e5, "firefly reporter light, replicate 2": 3.62e5, "Renilla control light, replicate 1": 2.97e6, "Renilla control light, replicate 2": 2.09e6, "outcome": "inactive"}
{"target": "Unr (Upstream of N-ras)", "reagent": 1, "firefly reporter light, replicate 1": 7.10e5, "firefly reporter light, replicate 2": 6.34e5, "Renilla control light, replicate 1": 1.26e6, "Renilla control light, replicate 2": 1.61e6, "outcome": "inactive"}
{"target": "Unr (Upstream of N-ras)", "reagent": 2, "firefly reporter light, replicate 1": 5.71e5, "firefly reporter light, replicate 2": 8.43e5, "Renilla control light, replicate 1": 2.19e6, "Renilla control light, replicate 2": 2.50e6, "outcome": "inactive"}
{"target": "Unr (Upstream of N-ras)", "reagent": 3, "firefly reporter light, replicate 1": 6.42e5, "firefly reporter light, replicate 2": 4.05e5, "Renilla control light, replicate 1": 6.16e5, "Renilla control light, replicate 2": 5.70e5, "outcome": "inactive"}
{"target": "Unr (Upstream of N-ras)", "reagent": 4, "firefly reporter light, replicate 1": 4.71e5, "firefly reporter light, replicate 2": 4.55e5, "Renilla control light, replicate 1": 1.11e6, "Renilla control light, replicate 2": 8.74e5, "outcome": "inactive"}
{"target": "Cdc14 (Cell division cycle 14)", "reagent": 1, "firefly reporter light, replicate 1": 1.91e5, "firefly reporter light, replicate 2": 2.06e5, "Renilla control light, replicate 1": 1.43e6, "Renilla control light, replicate 2": 1.29e6, "outcome": "inactive"}
{"target": "Cdc14 (Cell division cycle 14)", "reagent": 2, "firefly reporter light, replicate 1": 3.11e5, "firefly reporter light, replicate 2": 2.57e5, "Renilla control light, replicate 1": 5.54e5, "Renilla control light, replicate 2": 7.41e5, "outcome": "inactive"}
{"target": "Cdc14 (Cell division cycle 14)", "reagent": 3, "outcome": "inactive"}
{"target": "CG7246", "reagent": 1, "firefly reporter light, replicate 1": 4.08e5, "firefly reporter light, replicate 2": 3.41e5, "Renilla control light, replicate 1": 2.98e6, "Renilla control light, replicate 2": 3.01e6, "outcome": "inactive"}
{"target": "CtsL3 (Cathepsin L3)", "reagent": 1, "firefly reporter light, replicate 1": 43355, "firefly reporter light, replicate 2": 50351, "Renilla control light, replicate 1": 6.29e5, "Renilla control light, replicate 2": 4.86e5, "outcome": "inactive"}
{"target": "CtsL3 (Cathepsin L3)", "reagent": 2, "firefly reporter light, replicate 1": 3.37e5, "firefly reporter light, replicate 2": 2.17e5, "Renilla control light, replicate 1": 5.28e5, "Renilla control light, replicate 2": 4.47e5, "outcome": "inactive"}
{"target": "CG3009", "reagent": 1, "firefly reporter light, replicate 1": 78890, "firefly reporter light, replicate 2": 51239, "Renilla control light, replicate 1": 6.24e5, "Renilla control light, replicate 2": 5.94e5, "outcome": "inactive"}
{"target": "CG3009", "reagent": 2, "firefly reporter light, replicate 1": 4.42e5, "firefly reporter light, replicate 2": 4.99e5, "Renilla control light, replicate 1": 1.28e6, "Renilla control light, replicate 2": 1.48e6, "outcome": "inactive"}
{"target": "CG5731", "reagent": 1, "firefly reporter light, replicate 1": 1.65e5, "firefly reporter light, replicate 2": 2.47e5, "Renilla control light, replicate 1": 1.02e6, "Renilla control light, replicate 2": 1.09e6, "outcome": "inactive"}
{"target": "CG5731", "reagent": 2, "firefly reporter light, replicate 1": 3.60e5, "firefly reporter light, replicate 2": 4.61e5, "Renilla control light, replicate 1": 8.70e5, "Renilla control light, replicate 2": 7.90e5, "outcome": "inactive"}
{"target": "CG14418", "reagent": 1, "firefly reporter light, replicate 1": 9.79e5, "firefly reporter light, replicate 2": 1.17e6, "Renilla control light, replicate 1": 1.30e6, "Renilla control light, replicate 2": 1.40e6, "outcome": "inactive"}
{"target": "mib2 (mind bomb 2)", "reagent": 1, "firefly reporter light, replicate 1": 9.64e5, "firefly reporter light, replicate 2": 7.91e5, "Renilla control light, replicate 1": 1.28e6, "Renilla control light, replicate 2": 1.27e6, "outcome": "inactive"}
{"target": "Mcr (Macroglobulin complement-related)", "reagent": 1, "firefly reporter light, replicate 1": 9.18e5, "firefly reporter light, replicate 2": 7.23e5, "Renilla control light, replicate 1": 1.51e6, "Renilla control light, replicate 2": 1.49e6, "outcome": "inactive"}
{"target": "LManV (Lysosomal alpha-mannosidase V)", "reagent": 1, "firefly reporter light, replicate 1": 1.95e6, "firefly reporter light, replicate 2": 8.68e5, "Renilla control light, replicate 1": 3.56e6, "Renilla control light, replicate 2": 1.61e6, "outcome": "inactive"}
{"target": "LManV (Lysosomal alpha-mannosidase V)", "reagent": 2, "firefly reporter light, replicate 1": 7.71e5, "firefly reporter light, replicate 2": 8.07e5, "Renilla control light, replicate 1": 1.08e6, "Renilla control light, replicate 2": 1.06e6, "outcome": "inactive"}
{"target": "Nsun5 (Nop2/Sun-like domain containing protein 5)", "reagent": 1, "firefly reporter light, replicate 1": 77642, "firefly reporter light, replicate 2": 70064, "Renilla control light, replicate 1": 7.72e5, "Renilla control light, replicate 2": 6.88e5, "outcome": "inactive"}
{"target": "Trf5 (TBP-related factor 5)", "reagent": 1, "firefly reporter light, replicate 1": 9.20e5, "firefly reporter light, replicate 2": 8.24e5, "Renilla control light, replicate 1": 1.90e6, "Renilla control light, replicate 2": 1.84e6, "outcome": "inactive"}
{"target": "nAChRalpha6 (nicotinic Acetylcholine Receptor alpha6)", "reagent": 1, "firefly reporter light, replicate 1": 1.70e5, "firefly reporter light, replicate 2": 1.81e5, "Renilla control light, replicate 1": 3.09e5, "Renilla control light, replicate 2": 3.44e5, "outcome": "inactive"}
{"target": "nAChRalpha6 (nicotinic Acetylcholine Receptor alpha6)", "reagent": 2, "firefly reporter light, replicate 1": 8.92e5, "firefly reporter light, replicate 2": 8.28e5, "Renilla control light, replicate 1": 1.59e6, "Renilla control light, replicate 2": 1.99e6, "outcome": "inactive"}

Records listed so far whose target name starts with U or u:
{"target": "Unr (Upstream of N-ras)", "reagent": 1, "firefly reporter light, replicate 1": 7.10e5, "firefly reporter light, replicate 2": 6.34e5, "Renilla control light, replicate 1": 1.26e6, "Renilla control light, replicate 2": 1.61e6, "outcome": "inactive"}
{"target": "Unr (Upstream of N-ras)", "reagent": 2, "firefly reporter light, replicate 1": 5.71e5, "firefly reporter light, replicate 2": 8.43e5, "Renilla control light, replicate 1": 2.19e6, "Renilla control light, replicate 2": 2.50e6, "outcome": "inactive"}
{"target": "Unr (Upstream of N-ras)", "reagent": 3, "firefly reporter light, replicate 1": 6.42e5, "firefly reporter light, replicate 2": 4.05e5, "Renilla control light, replicate 1": 6.16e5, "Renilla control light, replicate 2": 5.70e5, "outcome": "inactive"}
{"target": "Unr (Upstream of N-ras)", "reagent": 4, "firefly reporter light, replicate 1": 4.71e5, "firefly reporter light, replicate 2": 4.55e5, "Renilla control light, replicate 1": 1.11e6, "Renilla control light, replicate 2": 8.74e5, "outcome": "inactive"}
